Results as given in the supplement of paper PMC3334620.
Whole data set: some 33,000 sequences, median “E-score (-0.5 to 0.5)” near -0.015, cut for the highest 2% near 0.3. The list shows a part of the results.

Target: T1, Abf1 (UniProt P14164)
T1 sequence: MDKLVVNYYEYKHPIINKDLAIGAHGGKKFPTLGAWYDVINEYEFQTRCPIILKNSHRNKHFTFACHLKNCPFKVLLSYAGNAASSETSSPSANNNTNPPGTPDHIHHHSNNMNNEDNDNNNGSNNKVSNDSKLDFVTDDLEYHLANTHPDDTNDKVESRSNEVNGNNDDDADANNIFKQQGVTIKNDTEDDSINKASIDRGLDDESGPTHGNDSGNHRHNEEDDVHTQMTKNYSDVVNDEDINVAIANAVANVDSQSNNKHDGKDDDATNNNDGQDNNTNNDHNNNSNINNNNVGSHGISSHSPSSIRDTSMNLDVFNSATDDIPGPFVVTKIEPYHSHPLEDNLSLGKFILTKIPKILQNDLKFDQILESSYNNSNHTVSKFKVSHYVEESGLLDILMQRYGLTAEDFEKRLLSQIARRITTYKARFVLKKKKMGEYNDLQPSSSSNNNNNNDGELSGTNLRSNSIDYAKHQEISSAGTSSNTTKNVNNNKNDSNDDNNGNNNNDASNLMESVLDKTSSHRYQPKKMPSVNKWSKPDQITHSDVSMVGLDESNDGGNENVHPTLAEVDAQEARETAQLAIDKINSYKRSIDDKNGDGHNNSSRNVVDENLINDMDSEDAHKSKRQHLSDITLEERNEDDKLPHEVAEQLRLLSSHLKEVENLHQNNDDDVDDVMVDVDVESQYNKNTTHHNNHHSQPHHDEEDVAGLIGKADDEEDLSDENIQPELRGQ
Test: PBM E-score (8-mer binding enrichment) (E-score (-0.5 to 0.5)); higher = stronger / more preferred TF binding
Conditions: protein concentration: 200 nM; construct: GST-full length
Description: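 Universal 'all 10-mer' protein binding microarrays (Agilent AMADID 015681) probed with GST-tagged S. cerevisiae TFs (full-length or DBD) made by in vitro transcription/translation (PURExpress), about 100-200 nM. Bound TF was detected with fluorescent anti-GST. Each ungapped 8-mer (which stands for itself and its reverse complement) is scored by the PBM enrichment score (E-score), a modified Wilcoxon-Mann-Whitney statistic from -0.5 to +0.5, computed with the Universal PBM Analysis Suite. Scale: above 0.35 generally sequence-specific binding.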

Sequence	PBM E-score
CAAGCACC	-0.12
GACTCGAC	-0.129
CTTACCTA	-0.0785
CTCCAAAA	-0.169
CGGCTATA	0.0716
AACCCCTT	-0.142
TCGATTAA	0.0311
AGTGCGCC	0.0331
CTAGCGCC	0.0207
ACCACACG	0.183
GCCTGGTA	-0.00699
CATGGAGG	-0.286
GGTCTAAC	-0.277
CACTACCA	0.124
AAGTGTGC	0.0477
GCTGTTAC	-0.136
GTAGAGAC	-0.14
AACCAACT	0.0493
ATTTGGTC	0.0338
ACATAACC	-0.0487
CAGCGTGG	-0.0616
CCTTTTGA	0.0587
ACGCATCC	-0.113
ATCCCATA	-0.107
CAAGTTGG	-0.0662

Sequence	PBM E-score
CCCGACAC	-0.283
CATGGTCC	-0.211
AGTCACAA	0.241
ATACTGCG	0.0144
GCAAGCCC	-0.191
CATGCGGC	-0.229
ATAGCAAA	-0.0407
GTATGAGA	0.145
CCAAGCGA	-0.0908
ATGAGGAA	-0.0977
AAGCGCGG	-0.173
GGTACAGA	0.00644
CAAGATAG	-0.0192
CACTCTCC	-0.0372
CCTTAATA	-0.125
GATGCATA	0.017
CCCCCCCA	-0.343
ACTGGTGA	0.141
GACCGCGA	-0.0117
CCACTCAC	0.0626
CATCCTGC	-0.0653
GCGATTAC	0.0444
AACCTTTC	-0.16
ATTGTCGG	-0.0187
GCGTGAGA	0.168

Sequence	PBM E-score
ATTTTTGC	0.113
AAGAGAGT	-0.24
AACCAGCA	-0.213
CTAGAGCC	-0.208
CCACAACC	0.0977
CGGAAAAG	0.0286
AGGGATCC	-0.22
ATGTCGCG	0.276
CGAGAACG	0.154
GGTATCAA	0.0321
AGCACGAG	0.101
AATGAATT	0.142
GAAGAACC	-0.255
GCTGACCA	-0.12
GCGAGACC	-0.121
ACTTGTTC	-0.00499
ACAGGACC	-0.0782
CCTCCCGC	-0.253
AGTGGGTA	-0.143
GTTGGGGA	-0.147
CACATGGG	-0.316
AGCATCCC	-0.14
AGACCGAT	-0.112
TCTCCGCA	-0.158
CACGCAGA	0.0714

Sequence	PBM E-score
AAAAACGA	0.295
TATGGGAA	-0.0816
ACTACAAC	0.171
GAAGCGTC	-0.0802
GAACGGGC	-0.174
CCTCCTCG	-0.143
AGTCTGCG	-0.234
CAGGTACC	-0.219
AAACTCGG	-0.0387
ACCTCCTG	-0.0233
ACCCTGGG	-0.161
GATCAAGA	0.0482
CACCGAGG	-0.099
AATGAAAC	0.0946
AACGCGGG	-0.0693
CATCAGCC	-0.0636
ACCTGGGG	-0.215
CCGCTTAA	0.0204
CGACGCCC	-0.0872
CATGATCA	0.33
CTGCATTA	-0.102
CCAGAGGC	-0.27
TAAGAGTA	0.0399
GGACTGGA	-0.137
AGGCTATA	-0.218

Quoted from the listing:
CCAAGCGA | PBM E-score: -0.0908
ACAGGACC | PBM E-score: -0.0782
GGTATCAA | PBM E-score: 0.0321

(continued)

Sequence	PBM E-score
AGATATTA	0.116
CCAGCCAG	-0.249
AGACGCCA	0.0124
GCGATCCA	0.152
TACCTTCA	0.101
GCACCGCA	-0.0957
ACAGATTC	-0.00274
AAGTGTCT	-0.00257
ATTTACAG	0.0512
AAAGAGTC	-0.13
ACCGCCAC	-0.267
ATCGGCAA	-0.217
ACTGCAGC	-0.232
AAGGAATT	-0.124
GCCGCCCC	-0.303
TGTCGACA	0.0272
AGGTGAAG	-0.017
GTACATAA	0.324
GGTAGACA	-0.118
ATCTCTTA	0.152
CTGCTGCC	-0.105
AAGCAGCT	-0.143
ATGTGCAC	-0.078
AGAGTCCC	-0.214
CATTAATA	0.243

Part of the list above, with bars between the fields:
Sequence | PBM E-score
ACCGCCAC | -0.267
ATCGGCAA | -0.217
ACTGCAGC | -0.232
AAGGAATT | -0.124
GCCGCCCC | -0.303
TGTCGACA | 0.0272
AGGTGAAG | -0.017

(continued)

Sequence	PBM E-score
GTGGAGTA	0.151
ACGTCTCG	0.165
ACGAACGG	0.312
AATAGAGA	-0.131
GCATAGAA	-0.0315
CATCCCCA	0.0716
CAAGCGAG	0.0713
CCGCGCGC	-0.0562
AACCGTGG	-5e-05
ACCCAGTA	-0.0733
GACACACC	0.0357
TGAGCCAA	-0.101
CTATGCAC	0.178
CAACTGGA	-0.182
GATGCGCC	-0.0192
AAGAATTG	-0.00067
ACGCTAGC	-0.103
TAGCCATA	0.0203
ATGGGAGC	-0.227
GAATGTCA	0.278
CTCACACA	-0.0398
CCAGACCA	-0.0967
GCTAGAAA	0.16
AGAATTAC	0.0728
CCCTTAGA	-0.174

Sequence	PBM E-score
CGTTCTCA	0.059
TGACACAA	0.156
AATGTGTC	0.0279
CCATCCCA	-0.234
ACTACGCA	-0.0933
CAGAGAGC	-0.237
AACGGGCC	-0.116
GGTTCGAC	0.0366
CAACCATC	-0.167
ATCTCCCC	-0.196
AGTGCATA	0.131
ATGGGTCA	-0.00788
ACAAATTA	0.158
TCGCCGAA	0.0248
CGTGTTTC	-0.155
TCCTCCGA	-0.203
ATATCAGA	0.191
GTAGATAA	0.18
GACGCCCC	-0.193
ATTCTCTA	0.133
CCAGATGC	-0.0341
ACACAAGT	0.0793
TAAGTCCA	0.0117
CCAAAGAC	0.0455
AATGAGAT	0.148

Sequence	PBM E-score
AAGCGTAG	-0.0275
ATCGCCAG	0.0334
ATAACCAG	0.142
ATGCAGGA	-0.155
CATAGAAA	0.105
GTTACGTA	-0.0533
GCTAGACC	-0.199
CAGCGACG	0.112
CAGGCATG	-0.0836
AACGATGT	0.229
AGCGATCC	0.0374
GCTCTGGA	0.165
AGCTCCCT	-0.295
CCACACAG	-0.0604
GCCATATA	0.0849
ATACATAA	0.0844
GCGGGATA	0.0864
AGGAGACG	-0.163
CGCAAGAC	0.122
AGTTACCA	0.0965
AGCATGGC	-0.114
CATGTGCA	-0.115
ACGGAGGG	0.0212
CCTGTACA	0.0248
GGTAAATA	0.015

Sequence	PBM E-score
CTTAAGTA	0.0776
CCAATTCA	-0.0262
CAACCAGG	-0.288
ATCTACGA	0.233
AAGTTATG	0.0741
GAAGTATC	0.183
ACTGGGAA	0.0656
ACGTGAGT	-0.0203
CCGGTAGA	-0.0669
AATCGCTC	-0.0643
AGAGCACA	-0.151
TACGACCA	0.242
ACCTATAT	0.262
GCACGAGA	0.178
GCCGGTTA	-0.0941
AGCTCCAG	-0.158
CCGCGATA	0.147
CATTTTAA	0.0806
CATCATGG	0.101
